Binding data for three molecules are collected here from paper PMC8790530.

The chains behind the UniProt entries cited, without tags or fusion partners.
UniProt Q9UBN7: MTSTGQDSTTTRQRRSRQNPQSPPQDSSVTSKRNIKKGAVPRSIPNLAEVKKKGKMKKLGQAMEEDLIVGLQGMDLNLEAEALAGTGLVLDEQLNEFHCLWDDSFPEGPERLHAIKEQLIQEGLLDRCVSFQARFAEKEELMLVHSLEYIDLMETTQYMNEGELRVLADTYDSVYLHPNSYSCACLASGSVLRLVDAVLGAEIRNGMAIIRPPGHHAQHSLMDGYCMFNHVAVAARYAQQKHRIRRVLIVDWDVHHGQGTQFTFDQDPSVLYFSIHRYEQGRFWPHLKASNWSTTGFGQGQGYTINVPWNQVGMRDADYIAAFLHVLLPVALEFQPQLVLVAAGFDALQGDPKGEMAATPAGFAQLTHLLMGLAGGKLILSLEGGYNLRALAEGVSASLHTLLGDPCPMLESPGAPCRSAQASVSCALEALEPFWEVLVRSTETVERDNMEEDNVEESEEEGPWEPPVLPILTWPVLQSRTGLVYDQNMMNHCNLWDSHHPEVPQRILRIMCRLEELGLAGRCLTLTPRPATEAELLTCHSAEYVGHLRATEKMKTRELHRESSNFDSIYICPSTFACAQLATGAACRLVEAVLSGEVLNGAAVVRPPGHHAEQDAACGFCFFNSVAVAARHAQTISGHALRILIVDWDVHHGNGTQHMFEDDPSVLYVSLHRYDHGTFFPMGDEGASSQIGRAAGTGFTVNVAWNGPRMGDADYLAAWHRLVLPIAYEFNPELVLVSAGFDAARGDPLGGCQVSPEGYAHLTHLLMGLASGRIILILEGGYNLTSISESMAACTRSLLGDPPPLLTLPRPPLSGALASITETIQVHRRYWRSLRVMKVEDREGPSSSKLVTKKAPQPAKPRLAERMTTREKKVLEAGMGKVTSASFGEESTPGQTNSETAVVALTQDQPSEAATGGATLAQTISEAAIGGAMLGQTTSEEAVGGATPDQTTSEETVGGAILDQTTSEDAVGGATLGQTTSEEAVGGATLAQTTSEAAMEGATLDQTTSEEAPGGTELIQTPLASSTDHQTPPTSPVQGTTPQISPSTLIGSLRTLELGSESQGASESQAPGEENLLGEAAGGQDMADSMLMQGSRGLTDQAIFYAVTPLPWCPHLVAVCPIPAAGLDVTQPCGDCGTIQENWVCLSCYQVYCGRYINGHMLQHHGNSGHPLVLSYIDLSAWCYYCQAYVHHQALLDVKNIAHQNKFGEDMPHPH

No constants are given. Whether binding was seen depends on the method and setting. Binding seen in cells or lysates may run through a third protein. Some results given as binding are weak or reduced against the parent protein; the word gives no strength. Where a sequence is shown, tags or fusion partners need not be part of it.

This test has as its target Myc-tagged wild-type HDAC6 (histone deacetylase 6) (human) (UniProt Q9UBN7). The experiment in a line: co-IP; HEK293T cells co-transfected for 48 h with Myc-tagged HDAC6WT and GFP or a GFP-tagged DPR construct; lysed in co-IP buffer (50 mM Tris-HCl, pH 7.4, 300 mM NaCl, 1% Triton X-100, 5 mM EDTA); anti-Myc antibody overnight at 4°C, captured on Dynabeads Protein G; Western blot for myc or GFP. On the technique in general: In western blotting, separated proteins are transferred to a membrane and probed.

B1: GFP-(GR)50 (protein)
chain: GRGRGRGRGRGRGRGRGRGRGRGRGRGRGRGRGRGRGRGRGRGRGRGRGRGRGRGRGRGRGRGRGRGRGRGRGRGRGRGRGRGRGRGRGRGRGRGRGRGR
As to B1, the binding entry is “no binding”.

B2: GFP-(GA)50 (protein)
chain: GAGAGAGAGAGAGAGAGAGAGAGAGAGAGAGAGAGAGAGAGAGAGAGAGAGAGAGAGAGAGAGAGAGAGAGAGAGAGAGAGAGAGAGAGAGAGAGAGAGA
Take B2: the binding result is “binds”.

B3: GFP-(GP)47 (protein)
chain: GPGPGPGPGPGPGPGPGPGPGPGPGPGPGPGPGPGPGPGPGPGPGPGPGPGPGPGPGPGPGPGPGPGPGPGPGPGPGPGPGPGPGPGPGPGPGP
For the molecule B3, the binding entry was “no binding”.
